# Primary screen of a compound library

Source: ChEMBL document CHEMBL3988442, “University of Dundee, Small-Polar-MMV Screening Library” (2021).

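Whole-cell assay for inhibitors of Mycobacterium tuberculosis growth, labelled Cornell in the record; the read-out is not stated. The concentration is filed as 10 mM, unlikely as a test dose, so the dose is not known. Higher means stronger inhibition (inferred from two other growth screens of the library). Of about 53,000 compounds tested this way, about 900 (1.7%) reached 50% or more in at least one test.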

Values are the deposited “Percent Effect”, in %.
The controls that fix the scale are not given in the record; negative values are as filed.
This is an unselected part of the compounds tested.

compound,Percent Effect
O=C(O)c1ccc(CNC(=O)C2CCN(Cc3ccco3)CC2)s1,-19.12
c1cc(-c2nc3c(c(NCCn4ccnn4)n2)CCNCC3)ccn1,-1.192
Cl.Cl.O=C(NCc1cncc2c1CCN(C1CCOCC1)C2)c1ccno1,-5.091
O=C(O)C(F)(F)F.[H][C@@]12COC[C@]1(CNS(=O)(=O)CC)CN(Cc1sccc1C)C2,-22.87
COc1ccccc1OCC(=O)NS(=O)(=O)c1ccc(Cl)cc1F,28.77
COc1ncccc1CN1Cc2nccn2CC(Cn2cccn2)C1 (configuration not stated),-5.892
Cn1cc(CN2CCC[C@]3(C[C@H](Oc4ncccc4F)CO3)C2)cn1.O=C(O)C(F)(F)F.O=C(O)C(F)(F)F,4.57
O=C(CS(=O)(=O)c1ccccc1Cl)NC1CCCCNC1=O (configuration not stated),-2.306
CCOc1ccc(NC(=O)c2cnc(N3CCCC3)nc2C)cc1,-3.103
c1ccc2c(Cc3nnc([C@H]4CCN(C5CCCCC5)C4)o3)c[nH]c2c1,9.477
O=C(CC1CC1)N1CCN(Cc2ccncc2)c2ncccc2C1.O=C(O)C(F)(F)F.O=C(O)C(F)(F)F,7.793
O=C(Cn1cccn1)Nc1ccc(N2CCCCC2)cc1,-18.28
O=C(CN1CCOC1=O)N1CCc2nnc(Cc3ccccc3)n2CC1,-1.041
Cc1noc(-c2ccnc(Oc3ccccc3CN3CCCCC3)c2)n1,23.4
CCOc1cccc(COC(=O)c2cc(C)on2)n1,56.01
CCc1nc(Cn2nc(C3CCNCC3)n(-c3ccccc3)c2=O)cs1,-7.812
NC1(c2nc(-c3cccs3)cc(=O)[nH]2)CCCCC1,-54.45
CC1(C)CNC(=O)CN(C(=O)CCc2ccccc2)C1,5.97
Cc1cnn(CC2CN(c3cnc4ccccc4n3)CCO2)c1 (configuration not stated),106.1
O=C(NCc1cc(C2CC2)n(C2CCCC2)n1)C1CC1,-8.449
CC(O)CN1CCC(=O)N(Cc2ccccc2)Cc2ccccc21 (configuration not stated),1.716
COCCN(C/C=C/c1ccccc1)Cc1[nH]cnc1C,23.6
Cc1cc(NC(=O)Cn2cnc(-c3cccs3)cc2=O)no1,-15.95
CCN(CC)C(=O)c1ccc(COc2ccccc2C#N)o1,8.547
CCOCC(=O)N1CCC(Cc2nnc(SC)n2C)CC1,0.7518
COc1ccc(C(C)NC(=O)c2nn(C)c(C)c2Br)cc1 (configuration not stated),7.342
Cc1cccc(CC(=O)N2CCCC(c3n[nH]c4nccnc34)C2)c1 (configuration not stated),-27.32
CCNc1ncc(C(=O)NC2CCc3ccccc3C2)cn1 (configuration not stated),17.58
O=c1c2cccc(F)c2ncn1CCN1CCNCC1,-11.11
Cc1nnsc1C(=O)N1CCCCC1c1cc2nc(C)c(C)c(O)n2n1 (configuration not stated),8.192
CCNC(=O)c1c2c(N3CCN(C)CC3)ncnc2n2ccccc12,-4.43
N#Cc1ccccc1OCCN1CCCCC1C(=O)N1CCOCC1 (configuration not stated),-20.3
Cn1c(Cl)cnc1CN1CCCC1c1ccc2c(c1)OCCO2 (configuration not stated),-1.764
Cc1cn2nc(N3CCCC3C(=O)N3CCN(C)CC3)sc2n1 (configuration not stated),-11.31
CN(C)C(=O)N1CCN(C(=O)c2ccc(Cl)c(Cl)c2)C(C)(C)C1,9.793
Cc1ccccc1N1CCCN(C(=O)CCCS(N)(=O)=O)CC1,-19.35
Cc1sc(CN)nc1-c1ccc(Cl)cc1.Cl,3.506
CCn1cnnc1CNC(=O)NCC(c1cccs1)N1CCCC1 (configuration not stated),10.15
CN(CCc1ccccn1)c1cc(N2CCCCC2)ncn1,-12.76
CC1CN(C2CCN(Cc3nccn3CC(F)(F)F)CC2)CCO1 (configuration not stated),12.9
CCc1nc(N2CCC3(CCC(=O)N(Cc4ccncc4)C3)CC2)no1,-49.49
CN(C)c1nc2c(c(=O)[nH]1)Cc1ccccc1OC2,-6.557
CN(CCOc1ccc(Cl)cc1)Cc1ccc(S(=O)(=O)N(C)C)o1,6.862
COc1cc(NCC(c2ccccn2)N2CCOCC2)ncn1 (configuration not stated),23.6
O=C(O)C(F)(F)F.O=C(O)C(F)(F)F.[H][C@@]12COC[C@]1(COCC(=O)N(C)C)CN(Cc1cccnc1OC)C2,3.807
Cc1cnc(CNCc2cnc(-c3ccccc3C)s2)cn1,9.762
Cc1nc(-c2ccccc2)n(CC(=O)NC(C2CC2)C2CC2)n1,-10.02
COCc1ccc(C(=O)N2CCc3c(ncnc3N3CCOCC3)C2)o1,-29.03
CN(C)C(=O)N1CCC2(C1)CN(c1cccnc1)C(=O)CN2C (configuration not stated),16.2
COc1ncccc1CN1CCc2[nH]nc(C(=O)N(C)C)c2C1,19.38
Cc1cccc(CN2CCN(c3ncnc4[nH]ccc34)CC2CCO)n1 (configuration not stated),15.14

Repeated from the top, 4 entries:

compound	Percent Effect
O=C(O)c1ccc(CNC(=O)C2CCN(Cc3ccco3)CC2)s1	-19.12
c1cc(-c2nc3c(c(NCCn4ccnn4)n2)CCNCC3)ccn1	-1.192
Cl.Cl.O=C(NCc1cncc2c1CCN(C1CCOCC1)C2)c1ccno1	-5.091
O=C(O)C(F)(F)F.[H][C@@]12COC[C@]1(CNS(=O)(=O)CC)CN(Cc1sccc1C)C2	-22.87